Data taken from article PMC3877284.
No constants are given. Whether binding was seen depends on the method and setting. Binding seen in cells or lysates may run through a third protein. For some assays here: Binding can be weak; no strength is given.

Columns and labels:
[1] = molecular target: T1, γ-catenin (human (endogenous in MCF10A, MCF7, HaCaT, Hep3B, HeLa)) (UniProt P14923); assay: co-IP; IP with an antibody against γ-catenin; 750 µg total protein
T1 sequence: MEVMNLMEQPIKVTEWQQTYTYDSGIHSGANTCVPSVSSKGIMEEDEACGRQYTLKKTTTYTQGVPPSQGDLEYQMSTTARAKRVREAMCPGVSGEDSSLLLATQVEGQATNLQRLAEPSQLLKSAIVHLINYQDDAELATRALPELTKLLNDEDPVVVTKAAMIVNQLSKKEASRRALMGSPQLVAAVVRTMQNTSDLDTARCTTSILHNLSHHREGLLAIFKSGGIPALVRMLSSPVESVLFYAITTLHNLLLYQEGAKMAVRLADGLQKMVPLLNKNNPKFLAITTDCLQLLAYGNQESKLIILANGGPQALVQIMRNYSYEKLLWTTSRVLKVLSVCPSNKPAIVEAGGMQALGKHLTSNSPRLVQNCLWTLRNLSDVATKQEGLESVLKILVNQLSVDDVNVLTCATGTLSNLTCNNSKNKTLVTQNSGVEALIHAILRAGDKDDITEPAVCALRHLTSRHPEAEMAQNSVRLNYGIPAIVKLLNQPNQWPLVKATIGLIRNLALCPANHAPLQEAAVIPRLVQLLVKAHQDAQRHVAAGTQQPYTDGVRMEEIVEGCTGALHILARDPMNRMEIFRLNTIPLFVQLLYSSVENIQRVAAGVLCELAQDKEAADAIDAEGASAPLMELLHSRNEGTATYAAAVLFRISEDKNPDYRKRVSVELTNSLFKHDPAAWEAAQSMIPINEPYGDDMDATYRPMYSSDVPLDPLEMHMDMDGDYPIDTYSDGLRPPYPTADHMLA

[2] = molecular target: T2, flotillin-2 (human (endogenous in MCF10A, MCF7, HaCaT, Hep3B, HeLa)) (UniProt Q14254); assay: co-IP; IP with flotillin-1 or flotillin-2 antibodies from MCF7, HaCaT, Hep3B and HeLa lysates; 750 µg total protein
T2 sequence: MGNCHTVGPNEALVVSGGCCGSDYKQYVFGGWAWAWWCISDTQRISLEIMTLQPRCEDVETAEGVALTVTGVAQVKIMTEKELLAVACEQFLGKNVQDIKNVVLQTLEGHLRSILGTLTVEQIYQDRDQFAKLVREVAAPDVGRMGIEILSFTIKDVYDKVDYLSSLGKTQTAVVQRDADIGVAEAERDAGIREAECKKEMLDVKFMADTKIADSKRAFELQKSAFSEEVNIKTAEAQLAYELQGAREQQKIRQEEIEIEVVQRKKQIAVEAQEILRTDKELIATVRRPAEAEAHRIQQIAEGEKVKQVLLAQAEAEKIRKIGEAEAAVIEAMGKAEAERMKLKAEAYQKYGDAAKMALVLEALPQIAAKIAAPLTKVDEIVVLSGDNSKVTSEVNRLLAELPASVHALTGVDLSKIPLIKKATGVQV

[3] = molecular target: T3, flotillin-1 (human (endogenous in MCF10A, MCF7, HaCaT, Hep3B, HeLa)) (UniProt O75955); assay: as above
T3 sequence: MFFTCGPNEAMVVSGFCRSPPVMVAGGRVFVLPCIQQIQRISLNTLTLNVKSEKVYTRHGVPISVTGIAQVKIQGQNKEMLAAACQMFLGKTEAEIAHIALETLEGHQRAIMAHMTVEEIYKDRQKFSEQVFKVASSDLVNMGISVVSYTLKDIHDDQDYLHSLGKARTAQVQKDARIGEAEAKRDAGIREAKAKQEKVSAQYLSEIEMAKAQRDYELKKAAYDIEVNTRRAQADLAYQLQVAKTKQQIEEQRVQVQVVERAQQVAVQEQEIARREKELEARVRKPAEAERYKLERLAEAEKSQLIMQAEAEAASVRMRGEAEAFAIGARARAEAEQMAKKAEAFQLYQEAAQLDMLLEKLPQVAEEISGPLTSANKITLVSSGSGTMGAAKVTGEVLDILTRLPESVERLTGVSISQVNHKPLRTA

[4] = molecular target: T2, flotillin-2 (human (endogenous in MCF10A, MCF7, HaCaT, Hep3B, HeLa)); assay: co-IP; IP with polyclonal flotillin-1 or flotillin-2 antibody on Dynabeads protein A from lysate of MCF10A cells grown confluent for 5 days; 750 µg total protein; 10 mM Tris-HCl pH 8.0, 150 mM NaCl, 5 mM EDTA, 0.5% Triton X-100, 60 mM N-octylglucoside
[5] = molecular target: T3, flotillin-1 (human (endogenous in MCF10A, MCF7, HaCaT, Hep3B, HeLa)); assay: as above

- binding [1]: binds
- binding [2]: binds
- binding [3]: no binding
- binding [4]: binds
- binding [5]: no binding
Substance: E-cadherin
